Measured values from the supplement of paper PMC10126150.
± gives the standard deviation of the averaged measurements.

Tested on: ATP
Test: switch fluorescence ratio, 500 uM ATP over buffer (Cy3 cluster intensity, sum of 5 cycles each) (fold (ratio)); higher = stronger signal-on switching upon ATP binding; sequences stand for … in TCGTCGGCAGCGTCAGATGTGTATAAGAGACAGTTTTTTTTTTTTTTTTTTTTTTTTT…TC
Details: aptamer strand: ATP DNA aptamer (quencher-CACCTGGGGGAGTATTGCGGAGGAAGG + anchor), 100 nM annealed; ATP concentration: 500 uM
How it was run: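 Imaging in selection buffer was followed by imaging after 15 min with 500 uM ATP at 22 °C, for Cy3-labelled switching-strand clusters annealed to 100 nM quencher-labelled ATP aptamer on a modified Illumina MiSeq flow-cell. Five of these buffer/ATP cycles ran, separated by NaOH stripping and re-annealing. The fluorescence ratio per cluster is summed target-cycle over summed buffer-cycle Cy3 intensity, averaged per switch-domain sequence; clusters outside 100-1000 RFU were removed.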
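Note: ATP exposure 15 min at 22 °C before imaging.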

GAGATGGAGT
switch fluorescence ratio: 0.974 ± 0.03
